According to paper doi:10.1101/2021.03.03.433722:
Results are given in words; binding and its absence hold for the method and conditions named. For some assays here: Binding can be weak; no strength is given. Tags and fused reporters may be left off the sequences shown.

How the values were obtained:
[1] = target: T1, MvaT 1-62-His (P. aeruginosa) (UniProt Q9HW86); assay: pull-down
T1 sequence: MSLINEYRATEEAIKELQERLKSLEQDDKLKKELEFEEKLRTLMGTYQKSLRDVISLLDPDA

[2] = target: T2, MvaT 79-124-His (P. aeruginosa) (UniProt Q9HW86); assay: pull-down
T2 sequence: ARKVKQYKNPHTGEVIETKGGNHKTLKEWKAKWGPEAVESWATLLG

## gp4 of Pseudomonas phage LUZ24
[1]
  binding: binds
[2]
  binding: no binding (tested: 40 µM)
